Test results taken from PubChem BioAssay AID2685 (National Center for Advancing Translational Sciences (NCATS), 2010).
The list shows a part of the results. The main result of the screen is listed elsewhere. These columns were measured beside it and carry no call. Most of these compounds were active or inconclusive in the main read-out, so they are no random draw. Words in brackets tell the shape of the fitted curve; partial curves, single points and poor fits give uncertain potencies.

Test: qHTS Assay for Lipid Storage Modulators in Drosophila S3 Cells;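 as to cell number change: cells counted by Cell Tracker Red CMTPX staining in the red channel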
Conditions: BODIPY lipid droplet fluorescence, 18-24 h; for cell number change: measured here: cell count max response, cells fed with added oleic acid
Method in brief: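 Drosophila S3 cells loaded with oleic acid (400 uM, as added) and compounds at several concentrations; lipid droplets imaged by 488-nm laser-scanning cytometry, 500–530 nm intensity and object ratio to cell channel. Percent activity normalized to 20 uM Triacsin C.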

[1] = measured here: cell number channel AC50, cells fed with added oleic acid
[2] = measured here: lipid fluorescence (Fed channel) AC50, cells fed with added oleic acid

SMILES | cell number change [%] | AC50 [1] | AC50 [2]
COc1ccc(N2CCOCC2)c(NC(=O)c2ccc(Br)o2)c1 | -42 | 23.1 µM [falling, single point] | 11.6 µM [falling, partial curve]
COc1ccc(OC)c(N2C(=O)C(Cl)=C(N3CCOCC3)C2=O)c1 | -16.9 |  | 2.91 µM [falling, full curve]
COC(=O)Cc1c(O)ccn(Cc2cccc(C(F)(F)F)c2)c1=O | 5.7 |  | 29.1 µM [rising, single point]
CCOC(=O)c1cccc(NC(=O)c2ccc(NC(=O)C3CCCO3)cc2)c1 (configuration not stated) |  |  | 10.3 µM [falling, partial curve, poor fit]
CCNC(=O)COC(=O)c1sccc1C | 2.6 |  | 0.00461 µM [rising, full curve, poor fit]
Cc1c(OCC(=O)NCc2ccncc2)ccc2c3c(c(=O)oc12)CCCC3 | 46.6 | 0.058 µM [rising, full curve, poor fit] | 29.1 µM [rising, partial curve]
COCC(C)n1c(COc2ccccc2F)nnc1SCC(=O)Nc1oc(C)c2c(C)n[nH]c(=O)c12 (configuration not stated) | -1.41 |  | 0.517 µM [rising, single point]
CN(c1ccc(Br)cc1)S(=O)(=O)c1ccc2[nH]cc(C(=O)NCCN3CCOCC3)c(=O)c2c1 | -28.9 |  | 1.46 µM [falling, full curve]
Cc1ccc2nc3c(cc(C#N)c(=O)n3CCN3CCOCC3)c(=O)n2c1 | 5.62 |  | 0.092 µM [rising, full curve, poor fit]
COc1ccccc1NC(=O)NC1CCCc2ccccc21 (configuration not stated) |  |  | 15.8 µM [rising, partial curve]
CCOC(=O)C1CCN(C(=O)c2ccc3c(c2)NC(=O)/C(=C\c2ccc(C)cc2)S3)CC1 |  |  | 3.26 µM [falling, partial curve]
Cc1nc(C(=O)N2CCCC(C(=O)c3cccc(OC(C)C)c3)C2)cs1 (configuration not stated) | -32.9 | 0.00517 µM [falling, full curve, poor fit] | 
CC1CCc2c(sc3ncnc(NCc4cccnc4)c23)C1 (configuration not stated) | 43.4 | 5.17 µM [rising, full curve, poor fit] | 
C=CCNC(=O)c1ccc(-n2cccc2)cc1 | 5.58 |  | 
CC(Sc1nc(C(F)(F)F)nc2ccccc12)C(=O)NC1CCCC1 (configuration not stated) | 39.8 | 0.58 µM [rising, partial curve, poor fit] | 
COc1cc(CN2CCC(Oc3cc(C(=O)NC4CC4)ccc3OC)CC2)cc(OC)c1 | 33.1 |  | 
Nc1c(Cl)c(Cl)nc(C(=O)OCC(=O)NC2CCCCC2)c1Cl |  |  | 3.66 µM [falling, full curve]
COC(=O)c1cc(NC(=O)CN2CCOCC2)cc(C(=O)OC)c1 | 30.1 | 13 µM [rising, single point] | 0.58 µM [falling, single point]
c1ccc(CN2CCN(c3nc4ccccc4s3)CC2)cc1 | 3.42 |  | 6.51 µM [rising, single point]
Cc1cccc(C)c1NC(=O)CSc1nnc(Cn2nnc(-c3ccccc3)n2)n1-c1ccccc1 | -22.2 |  | 0.116 µM [falling, full curve, poor fit]

SMILES | cell number change [%] | AC50 [1] | AC50 [2]
Clc1ccc(-c2nnc3sc(-c4ccc(Br)o4)nn23)c(Cl)c1 | -18 |  | 1.46 µM [rising, partial curve]
NC(=O)c1cccc(NC(=O)CCCCC(=O)Nc2cccc(C(N)=O)c2)c1 |  | 0.731 µM [falling, single point] | 
COC(=O)c1sc(N)c(C(=O)OC)c1COC(=O)c1c(C)noc1C | -23.7 |  | 
O=C(O)c1cccc(N2C(=O)c3cccc4cccc(c34)C2=O)c1 | -2.12 |  | 0.146 µM [falling, full curve, poor fit]
O=C(NCc1ccco1)c1ccc(OCC2CCCO2)cc1 (configuration not stated) | -7.92 |  | 
COc1cccc(C(=O)N2N=C(c3ccccc3)CC2(O)C(F)(F)F)c1 (configuration not stated) | -4.77 | 0.366 µM [falling, full curve, poor fit] | 1.16 µM [falling, partial curve, poor fit]
CSc1ccc(C=O)cc1 | 4.59 |  | 
COc1ccccc1CSc1ncc(-c2ccc([N+](=O)[O-])cc2)[nH]1 | 91.6 | 6.51 µM [rising, partial curve, poor fit] | 6.51 µM [rising, single point]
CC1CCc2c(sc(NC(=O)CN3CCN(C(=O)c4ccco4)CC3)c2C#N)C1 (configuration not stated) | 38.3 | 9.2 µM [rising, single point] | 
CCCCNC(=S)N(C)/N=C/c1ccc(OCC(=O)Nc2ccc(OC)cc2)c(OC)c1 | -2.99 |  | 
COC(=O)C1C(c2ccc(OC)c(OC)c2)NC(c2ccc(OC)c(OC)c2)C(C(=O)OC)S1(=O)=O (configuration not stated) | 35.9 | 4.61 µM [rising, partial curve, poor fit] | 4.61 µM [rising, partial curve]
COc1ccccc1NC(=O)C/C(C)=N/NC(=O)c1ccccn1 | -27.8 |  | 6.51 µM [rising, single point]
CC1=Nc2cc(Cl)ccc2Oc2ccccc21 | -22.8 |  | 25.9 µM [falling, single point]
CC(C)(C)OC(=O)N1CCC(NC(=O)c2nc[nH]c2C(=O)NCc2ccccc2)CC1 | -1.56 |  | 
c1ccc(Cn2nnc3c(NCc4ccc5c(c4)OCO5)ncnc32)cc1 | -12.3 |  | 2.91 µM [rising, single point]
O=[N+]([O-])c1ccc(O)c(C=Nc2cccc3ccccc23)c1 | -9.45 |  | 16.4 µM [rising, partial curve]
CC1CCN(S(=O)(=O)c2ccc(NC(=O)Cc3ccc(S(=O)(=O)N4CCOCC4)s3)cc2)CC1 | -23.2 |  | 0.82 µM [falling, partial curve]
CC1(C(=O)NC2CCCCC2)CCC(=O)N1Cc1cccnc1 (configuration not stated) | 24.9 |  | 1.46 µM [rising, partial curve]
CS(=O)(=O)c1ccc2nc(NC(=O)CN3CCN(Cc4ccccc4)CC3)sc2c1 | 36.7 | 29.1 µM [rising, single point] | 

Part of the list above, reformatted.

| SMILES | cell number change [%] | AC50 [1] | AC50 [2] |
| --- | --- | --- | --- |
| COC(=O)Cc1c(O)ccn(Cc2cccc(C(F)(F)F)c2)c1=O | 5.7 |  | 29.1 µM [rising, single point] |
| CCNC(=O)COC(=O)c1sccc1C | 2.6 |  | 0.00461 µM [rising, full curve, poor fit] |
| O=[N+]([O-])c1ccc(O)c(C=Nc2cccc3ccccc23)c1 | -9.45 |  | 16.4 µM [rising, partial curve] |
